Measured values as given in PubChem BioAssay AID2685 (National Center for Advancing Translational Sciences (NCATS), 2010).
Where “and” joins values, the source holds several entries; their conditions need not be identical. Identical values can stand only once. Some of the results follow. The main result of the screen is listed elsewhere. These columns were measured beside it and carry no call. Most of these compounds were active or inconclusive in the main read-out, so they are no random draw. Potencies come from curve fits of mixed quality, noted in brackets.

Assay: qHTS Assay for Lipid Storage Modulators in Drosophila S3 Cells;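 on cell number change: cells counted by Cell Tracker Red CMTPX staining in the red channel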
Conditions: BODIPY lipid droplet fluorescence, 18-24 h; for cell number change: measured here: cell count max response, cells fed with added oleic acid
Summary of the method: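 Drosophila S3 cells got compounds at several concentrations plus oleic acid (400 uM solution). Laser-scanning cytometry with 488 nm excitation read lipid droplets at 500-530 nm and cells at 575-640 nm. Percent activity was relative to 20 uM Triacsin C.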

[1] = measured here: lipid fluorescence (Fed channel) AC50, cells fed with added oleic acid
[2] = measured here: cell number channel AC50, cells fed with added oleic acid

| SMILES | cell number change | AC50 [1] | AC50 [2] |
| --- | --- | --- | --- |
| Cc1ccccc1NC(=O)N1CCCC1C(=O)NCc1ccccc1 (stereo not drawn) | 27.4% | 29.1 µM [rising, single point] |  |
| CC(C)c1nc(CNC(=O)CC2C(=O)NCCN2Cc2cccc(F)c2F)cs1 (stereo not drawn) | 18.7% | 4.11 µM [rising, partial curve, poor fit] |  |
| CC(C)(C)OC(=O)NCc1ccc(CNC(=O)c2[nH]cnc2C(=O)N[C@@H](Cc2ccccc2)C(=O)OCc2ccccc2)cc1 | 74.3% | 2.91 µM [falling, partial curve] | 18.4 µM [rising, partial curve] |
| Cc1ccc(C(=O)N/C(=C\c2ccco2)C(=O)NCCc2c[nH]c3ccccc23)cc1 | 1.37% | 0.00461 µM [rising, full curve, poor fit] |  |
| COc1cc(/C=C/C(=O)OCC(=O)NC2CCS(=O)(=O)C2)ccc1OC(F)F (stereo not drawn) | -23.9% | 0.291 µM [falling, full curve, poor fit] |  |
| CSc1nc(NCc2ccco2)c2ccccc2n1 |  | 6.51 µM [rising, single point] | 0.731 µM [rising, single point] |
| Cc1cc(NC(C)C)n2c(nc3ccccc32)c1C#N |  | 18.4 µM [falling, partial curve] |  |
| COc1ccc(S(=O)(=O)N2CCOC2CNC(=O)C(=O)NCCc2ccc(OC)c(OC)c2)cc1 (stereo not drawn) | -1.49% | 29.1 µM [falling, single point] |  |
| COc1ccccc1C/C(N)=N/OC(=O)c1ccc(C)c([N+](=O)[O-])c1 | -4.89% | 0.731 µM [falling, partial curve, poor fit] |  |
| Cc1ccc2cc(C#N)c(SCC(=O)NNC(=O)Cc3ccccc3)nc2c1 | -0.244% | 23.1 µM [falling, partial curve] |  |
| CCCCC(=O)Nc1ccc2c(c1)nc1n2CCOC1 | 36.7% |  | 10.3 µM [rising, partial curve, poor fit] |
| COC(=O)c1[nH]c2cccc(OC)c2c1NC(=O)CN1CCN(c2cccc(OC)c2)C(C)C1 (stereo not drawn) |  | 3.26 µM [rising, partial curve] |  |
| COC(=O)c1ccc(C)c(NC(=O)c2ccc(CN3CCc4ccccc4C3)cc2)c1 | -16.5% | 29.1 µM [falling, single point] |  |
| COc1ccccc1N1CCN(CC(O)COc2cccc3ccccc23)CC1 (stereo not drawn) | -25% and 11.3% and 16.8% | 29.1 µM [falling, single point] and 25.9 µM [rising, single point] and 10.3 µM [rising, partial curve] |  |
| CC1CCCN(C(=O)CNC(=O)Cn2ccc3ccccc3c2=O)C1 (stereo not drawn) | -2.45% | 25.9 µM [rising, single point] |  |
| Brc1ccc(C2=CC(c3ccco3)n3nnnc3N2)cc1 (stereo not drawn) | 25% | 18.4 µM [rising, single point] |  |
| COc1cc(OC)cc(C(=O)OCC(=O)c2cc(C)n(CC3CCCO3)c2C)c1 (stereo not drawn) | 22.8% |  |  |
| CCCOc1ccc(Cn2ccnc2)cc1[N+](=O)[O-] | -5.35% | 29.1 µM [rising, single point] |  |
| COc1ccc(Nc2cc(C)nc(-n3nc(C)cc3C)n2)cc1 | -4.76% |  |  |

| SMILES | cell number change | AC50 [1] | AC50 [2] |
| --- | --- | --- | --- |
| CCOC(=O)c1c(C)[nH]c(C(=O)OCc2c(C)noc2C)c1C | -16.4% |  |  |
| C=CCNS(=O)(=O)c1sccc1/C=N/O | 5.85% |  |  |
| C=CCNC(=S)Nc1ccc2nc(C)oc2c1 | 101% | 29.1 µM [rising, single point] | 20.6 µM [rising, single point] |
| OC(COc1ccc(F)cc1Cl)CN1CCC(Cc2ccccc2)CC1 (stereo not drawn) | -65.9% | 23.1 µM [falling, single point] | 23.1 µM [falling, single point] |
| CC(C)COc1ccc(-c2nnn(CC(=O)N3CCCC3)n2)cc1 | 33% | 6.51 µM [rising, single point] |  |
| Cc1ccccc1CN1C(=O)c2ccccc2Sc2ccc(C(=O)NCCCN3CCOCC3)cc21 | 3.8% | 29.1 µM [rising, single point] |  |
| O=C(C1CC1)N1CCN=C1SCc1ccccc1Cl | 9.39% |  |  |
| Cc1scc(C(=O)N/N=C/c2ccc(OC(C)C)cc2)c1C | 27.9% | 8.2 µM [rising, partial curve] |  |
| COc1ccc(-n2c(-c3ccc(Br)cc3)c[n+]3c2CCCCC3)cc1 | -52.3% | 29.1 µM [falling, single point] | 29.1 µM [falling, single point] |
| COc1ccc(C(=O)N=c2c(C#N)cc3c(=O)n4cccc(C)c4nc3n2Cc2ccco2)cc1 |  | 0.291 µM [rising, full curve] | 0.291 µM [rising, full curve] |
| COc1cccc(-n2nc3c(=O)n(Cc4ccccc4Cl)nc(C)c3c2C)c1 | -0.419% | 6.51 µM [falling, single point] |  |
| COc1ccc(N2CCN(c3nc(NCCO)nc(N4CCOCC4)n3)CC2)cc1 | 32% | 1.16 µM [rising, single point] | 2.31 µM [rising, partial curve] |
| CC12CCC(C(=O)NCCc3ccccc3)(OC1=O)C2(C)C (stereo not drawn) | -68.6% |  | 1.3 µM [falling, full curve] |
| CS(=O)(=O)c1cccc(-c2nnc(NC(=O)c3ccc4ncsc4c3)o2)c1 | 16.2% |  |  |
| O=C(Nc1ccc2c(c1)OCO2)C1CCN(S(=O)(=O)Cc2ccccc2)CC1 | -6.11% | 2.31 µM [rising, partial curve] |  |
| CC1(C)CC(=O)C2=C(C1)Nc1ccccc1NC2c1cccnc1 (stereo not drawn) | -81% |  | 29.1 µM [falling, single point] |
| Cc1cc(NCc2ccccn2)n2c(nc3ccccc32)c1C#N | -19.2% |  |  |
| O=Nc1c(O)[nH]c2ccc(Cl)cc12 | 32.5% | 0.00461 µM [rising, full curve, poor fit] | 0.92 µM [falling, full curve] |
| COc1cc(N)c(Cl)cc1C(=O)OCC(=O)N1CCCCCC1 | 29.2% | 1.16 µM [rising, partial curve] |  |
